No constants are given. Whether binding was seen depends on the method and setting. Binding seen in cells or lysates may run through a third protein. Some results given as binding are weak or reduced against the parent protein; the word gives no strength.
What was measured:
[1] = target: Cdk5, endogenous in p25 transgenic mouse hippocampus (mouse (endogenous in p25 TG mouse hippocampus)) (UniProt P49615); experiment: co-IP; p25 TG mouse hippocampal lysates; immunoprecipitated with anti-Cdk5 antibody or control IgG, then immunoblot
[2] = target: Cyclin-dependent kinase 5 (Cdk5), human, transfected in HEK293T cells (human) (UniProt Q00535); experiment: co-IP; lysates of HEK293T cells transfected with plasmids encoding p25 and Cdk5; immunoprecipitated with anti-Cdk5 antibody or control IgG, then immunoblot

Amino acid sequences for entries named in this document (tags omitted). Residues count along the entry.
UniProt P56818, residues 46-501: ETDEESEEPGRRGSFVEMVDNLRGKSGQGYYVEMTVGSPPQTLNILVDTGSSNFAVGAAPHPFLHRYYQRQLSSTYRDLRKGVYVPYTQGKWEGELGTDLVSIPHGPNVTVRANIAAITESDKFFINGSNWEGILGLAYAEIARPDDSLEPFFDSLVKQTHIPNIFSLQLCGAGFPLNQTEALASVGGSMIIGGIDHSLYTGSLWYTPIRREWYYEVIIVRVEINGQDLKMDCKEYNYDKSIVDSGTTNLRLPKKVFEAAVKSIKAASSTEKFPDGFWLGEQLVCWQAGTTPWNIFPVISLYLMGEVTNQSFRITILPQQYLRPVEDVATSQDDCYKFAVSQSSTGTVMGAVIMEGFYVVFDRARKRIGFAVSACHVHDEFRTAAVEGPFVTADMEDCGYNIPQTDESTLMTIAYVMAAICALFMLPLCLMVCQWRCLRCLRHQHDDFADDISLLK
UniProt P56817, residues 46-501: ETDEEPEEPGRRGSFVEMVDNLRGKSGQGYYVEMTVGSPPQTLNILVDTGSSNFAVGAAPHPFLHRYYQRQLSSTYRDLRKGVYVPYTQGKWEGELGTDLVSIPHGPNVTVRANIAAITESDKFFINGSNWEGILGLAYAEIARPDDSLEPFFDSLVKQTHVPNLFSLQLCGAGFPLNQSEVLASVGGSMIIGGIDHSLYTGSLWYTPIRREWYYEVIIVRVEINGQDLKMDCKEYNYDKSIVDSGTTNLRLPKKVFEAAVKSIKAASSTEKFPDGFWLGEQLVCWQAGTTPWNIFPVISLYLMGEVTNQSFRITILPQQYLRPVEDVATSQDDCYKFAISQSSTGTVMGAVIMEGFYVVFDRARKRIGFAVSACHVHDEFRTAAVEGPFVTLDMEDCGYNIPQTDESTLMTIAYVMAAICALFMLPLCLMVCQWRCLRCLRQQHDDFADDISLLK

BACE1, endogenous in p25 transgenic mouse hippocampus (from UniProt P56818 46-501)
binding [1]: binds

beta-site amyloid precursor protein (APP) cleaving enzyme 1 (BACE1), endogenous in HEK293T cells (from UniProt P56817 46-501)
binding [2]: binds
